Test results taken from patent US20110294982A1 (Ablynx, published 2011).
Changes are numbered by the printed parent chain. These are yes or no findings as the source states them, for the method shown. Some results given as binding are weak or reduced against the parent protein; the word gives no strength. Blank lines part the entries; values can stand above or below the binder they belong to.

Sequences of proteins named here, by UniProt entry; tags and fusion partners are left off.
UniProt P05556: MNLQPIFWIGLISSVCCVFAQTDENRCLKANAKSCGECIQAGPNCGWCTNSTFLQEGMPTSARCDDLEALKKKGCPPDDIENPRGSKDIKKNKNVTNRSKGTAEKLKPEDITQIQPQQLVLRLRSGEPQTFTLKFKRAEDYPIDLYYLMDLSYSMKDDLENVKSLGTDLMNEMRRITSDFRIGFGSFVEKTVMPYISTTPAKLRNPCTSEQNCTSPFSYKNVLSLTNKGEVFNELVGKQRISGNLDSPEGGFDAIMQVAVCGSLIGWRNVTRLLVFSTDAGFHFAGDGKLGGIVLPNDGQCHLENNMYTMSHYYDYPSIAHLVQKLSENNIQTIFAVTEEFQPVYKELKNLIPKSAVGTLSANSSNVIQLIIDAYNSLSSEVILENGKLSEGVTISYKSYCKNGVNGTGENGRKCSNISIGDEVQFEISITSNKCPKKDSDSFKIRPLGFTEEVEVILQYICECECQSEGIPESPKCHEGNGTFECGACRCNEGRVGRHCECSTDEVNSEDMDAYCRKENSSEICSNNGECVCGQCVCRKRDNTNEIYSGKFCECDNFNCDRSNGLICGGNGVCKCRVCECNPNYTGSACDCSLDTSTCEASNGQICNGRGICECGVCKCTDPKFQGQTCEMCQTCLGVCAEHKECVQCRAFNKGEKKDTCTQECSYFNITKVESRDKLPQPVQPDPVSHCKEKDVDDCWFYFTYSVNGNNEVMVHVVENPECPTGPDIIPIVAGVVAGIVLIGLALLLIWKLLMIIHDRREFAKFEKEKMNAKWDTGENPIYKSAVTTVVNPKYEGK

Legend:
[1] = target: Human beta1 (human) (UniProt P05556); experiment: specificity ELISA on coated integrins, periplasmic extract
[2] = target: T1, Human alphaL (human) (UniProt P20701); experiment: as above
T1 sequence (looked up): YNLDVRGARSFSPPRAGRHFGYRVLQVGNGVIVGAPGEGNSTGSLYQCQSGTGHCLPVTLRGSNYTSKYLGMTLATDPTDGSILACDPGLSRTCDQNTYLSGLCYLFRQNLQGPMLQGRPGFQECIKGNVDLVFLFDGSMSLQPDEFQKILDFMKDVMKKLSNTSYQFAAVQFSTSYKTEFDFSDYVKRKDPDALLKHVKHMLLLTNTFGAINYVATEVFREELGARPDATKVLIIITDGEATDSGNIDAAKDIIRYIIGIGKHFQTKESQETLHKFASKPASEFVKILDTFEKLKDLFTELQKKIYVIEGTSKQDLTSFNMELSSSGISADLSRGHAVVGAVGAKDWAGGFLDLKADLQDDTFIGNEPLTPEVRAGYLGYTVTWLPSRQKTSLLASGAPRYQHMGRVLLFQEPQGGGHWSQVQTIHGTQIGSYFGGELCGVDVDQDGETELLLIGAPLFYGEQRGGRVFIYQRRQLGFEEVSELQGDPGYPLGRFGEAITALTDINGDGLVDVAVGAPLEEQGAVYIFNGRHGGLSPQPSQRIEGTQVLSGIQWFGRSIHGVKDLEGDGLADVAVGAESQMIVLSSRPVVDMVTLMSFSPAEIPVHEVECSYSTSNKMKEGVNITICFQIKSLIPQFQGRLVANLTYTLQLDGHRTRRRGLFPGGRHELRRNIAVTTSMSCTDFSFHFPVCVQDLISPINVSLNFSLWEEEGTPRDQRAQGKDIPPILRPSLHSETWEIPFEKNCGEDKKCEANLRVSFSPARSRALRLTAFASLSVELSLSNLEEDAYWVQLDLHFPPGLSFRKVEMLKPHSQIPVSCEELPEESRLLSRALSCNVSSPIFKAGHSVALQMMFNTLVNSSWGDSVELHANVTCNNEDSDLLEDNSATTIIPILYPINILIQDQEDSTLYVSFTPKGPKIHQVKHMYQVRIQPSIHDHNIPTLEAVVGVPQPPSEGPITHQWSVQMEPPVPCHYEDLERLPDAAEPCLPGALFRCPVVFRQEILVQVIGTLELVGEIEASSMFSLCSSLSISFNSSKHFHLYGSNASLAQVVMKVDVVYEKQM

B1: 141-A10 (VHH)
VHH: EVQLVESGGGLVQAGGSLRLSCAASGRTISRFTMGWFRQGPGKERDFVAAISWGGGRTNYEDSVKGRFTISRDNAQNTVYLQMNSLKPEDTAVYYCAABSRGPYNSNWHQSSVSYDYWGQGTQVTVSS
binding [1]: binds

B2: 141-C10 (VHH)
VHH: B1 VHH with G40A, S100T, H109A, Y117G
binding [1]: binds

B3: 141-E10 (VHH)
VHH: B1 VHH with G40A, D46E, S100T, H109A
binding [1]: binds

B4: 141-F10 (VHH)
VHH: B1 VHH with G40A
binding [1]: binds

B5: 141-A11 (VHH)
VHH: B1 VHH with G40A, B99D, S100T, H109A, Y117T
binding [1]: binds

B7: 141-C11 (VHH)
VHH: B1 VHH with G16D, G40A, B99D, S100T, H109A, Y117G
binding [1]: binds

B8: 142-C7 (VHH)
VHH: B1 VHH with G40A, S100T, Y117A
binding [1]: binds

B9: 142-B10 (VHH)
VHH: B1 VHH with Q13P, T28A, G40A, N59D, Q76R, S100T, H109A, D116N
binding [1]: binds

B13: 141-F11 (VHH)
VHH: B1 VHH with G40A, G66D
binding [1]: binds

B14: 142-A7 (VHH)
VHH: EVQLVESGGGLVQAGGSLSLSCAASGASGIIYSINAMGWYRQAPGKQREVVAVVTNGGSTEYADFVKGRFTVSREYAKNAVYLQMNSLKPEDTAVYYCYARGIIARWGSAPGNYWGQGTQVTVSS
binding [1]: binds

B16: 141-H10 (VHH)
VHH: EVQLVESGGGLVQPGGSLRLSCAVSGFTSDYYAIGWFRQAPGKEREGVSCISSSDGSTYYABSVKGRFTISRDNAKNTVYLQMNSLKPEDTAVYYCATTCVVNPEGYDFWGQGTQVTVSS
binding [1]: binds

B17: 141-E5 (VHH)
VHH: EVQLVESGGGLVQAGGSLRLSCAASGSISSINSINIMGWYRQAPGKQRDLVAYITKRGSTKYADSVKGRFTISRDNAKNMATLQMNSLKPEDTAVYYCAAGPDGLGGQDDYWGQGTQVTVSS
binding [1]: binds

B18: 141-F5 (VHH)
VHH: EVQLVESGGGLVQAGGSLRLACQASRAIERIVGWYRQAPGKQRELVAAITVPGITNYTDSVKDRFTISRDSAKNTVYLQMNKLKPEDTAVYYCAAPTYGRGQGTQVTVSS
binding [1]: binds

B19: 141-B6 (VHH)
VHH: EVQLVESGGGMVQTGGSLRLSCAASGSTLNINNGEWYRQAPGKQREFVAAIGSGGTTDYADSVKGRFTISKANAKNTLYLQMNSLKPEDTAVYYCYVRSWRNYWGQGTQVTVSS
binding [1]: binds

B31: 138-G4 (VHH)
VHH: EVQLVESGGGLVQAGGSLRLSCAASGFTFDDYAIGWFRQAPGKEREGVSCISSSHGSTFYADSVKDRFTISSDNAKNTVYLQMNSLKPEDTAVYYCAAALGGGSSWCTTYEYDAWGQGTQVTVSS
binding [2]: binds

The next lines start with the values.

binding [1]: binds
B6: 242-E8 (VHH)
VHH: B1 VHH with G40A, B99D, S100T, H109A, Y117G

binding [1]: binds
B10: 142-C9 (VHH)
VHH: B1 VHH with G40A, N59K, K65T, N84D

binding [1]: binds
B11: 142-D8 (VHH)
VHH: B1 VHH with G40A, N59K, K65T

binding [1]: binds
B12: 142-E11 (VHH)
VHH: B1 VHH with G40A, F68S, S100T, H109A

binding [1]: binds
B15: 142-G7 (VHH)
VHH: B14 VHH with S19R, I30T, N35S, A36S

binding [1]: binds
B20: 245-D7 (VHH)
VHH: EVQLVESGGGLVQAGGSLRLSCTASGRTASTYAMGWLRQAPGKEREFVAAISYSGATTYYADSVKGRFTISRDNAKSTAYLQMNSLQPEDTAVYYCAASANRDLSLWVSTAYRSTGLWYWGQGTQVTVSS

binding [2]: binds
B21: 235-B7 (VHH)
VHH: EVQLVESGGGLVRAGGSLRLSCTASGNILNIASMGWYRQAPGKQRTWVARIRSDGTTSYQDAVKGRFTIAKDNAKNAGYLQMDNLKPEDTAVYYCNAAGSTIDGGFSSWGPGTQVTVSS

binding [2]: binds
B22: 248-F2 (VHH)
VHH: B21 VHH with P41L

binding [2]: binds
B23: 248-F7 (VHH)
VHH: EVQLVESGGGLVQAGGSLRLSCAASGSGFNIVNAGWYRQGPEKQRELVARITSGGTTNYAESVKGRFTISRDNAKNTVYLQMNSLKPEDTAVYSCNARVIAPGRLDDIWGQGTQVTVSS

binding [2]: binds
B24: 248-D7 (VHH)
VHH: EVQLVESGGGLVQPGGSLRLSCAASGFAFSSYAMSWVRQAPGKGVEWVSAINSGGGSTSYLNSVKGRFTISRDDAKNTLYLQMNSLKPEDTAVYYCAKPIYYSPNTYPPTSRYDYRGQGTQVTVSS

binding [2]: binds
B25: 236-B4 (VHH)
VHH: B24 VHH with E1K, A33V, S35T, V45L, A50S, N52T, S57Y, I100T, Y101F, T106M

binding [2]: binds
B26: 248-E8 (VHH)
VHH: B24 VHH with A33V, S35T, V45L, A50S, N52T, S57Y, L61V, I100T, Y101F, T106M

binding [2]: binds
B27: 248-C8 (VHH)
VHH: EVQLVESGGGLVQAGGSLRLSCAASGFTLDAYAIGWFRQAPGKEREGVSCISSSDGSTFYADSVKDRFTISSDNAKNTVYLQMNSLKPEDTAVYYCAADRRGKSEMYCTDYSYSDAWGQGTQVTVSS

binding [2]: binds
B28: 235-F3 (VHH)
VHH: EVQLVESGGGLVQAGGSLTLSCALSGGSSSIANSAWYRQAPGNQRELVARITSNDNTYYADSVKGRLTISKDNAKNTASLQMNSLKPEDTAVYYCFVRTVGTGSLFDYWGQGTQVTVSS

binding [2]: binds
B29: 248-F1 (VHH)
VHH: B28 VHH with L67F

binding [2]: binds
B30: 248-G2 (VHH)
VHH: B28 VHH with L4P, L67F

binding [2]: binds
B32: 235-A12 (VHH)
VHH: EVQLVESGGGLVQSGGSLRLSCAASGSIVGISDMRWYRQAPGNQRELAASISRGGSTNYGDFVKGRFTISRDNAKNTVSLQMSSLEPEDTAVYYCNAAVAAGTVGAYTLRNYWGQGTQVTVSS

binding [2]: binds
B33: 248-B7 (VHH)
VHH: KVQLVESGGGLVQAGGSLRLTCAASGSILSVSTMTWYRQVLGTQRELVASITRSGGSNYADPVKGRFTIARDNAKNTMYLQMNSLKPEDTAIYYCNAVIASNSGRSYDLRNYWGQGTQVTVSS

binding [2]: binds
B34: 248-A1 (VHH)
VHH: EVQLVESGGGLVQPGGSLRLSCTASGSVFSIGNMGWYRQAPGKQRELVATITQAGSPNYSQSAKGRFTISRDVPKNTVSLQMNSLKPEDTAVYYCNGNIVTYDRGRTTVKNYWGQGTQVTVSS
